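Cell assay of Leishmania donovani living inside macrophages; the read-out is not stated. Compounds at 30 µM. Higher reads as stronger inhibition (inferred: compounds with an IC50 in retests scored well above the rest). Of about 69,000 compounds tested this way, about 1,000 (1.5%) reached 50% or more in at least one test.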

Each number is a percent effect as filed.
The controls that fix the scale are not given in the record; negative values are as filed.
Compounds were drawn at random from those tested, without regard to their results.
Two or more numbers in one place are separate tests of the same structure; such repeats can differ widely.

Compound,Percent Effect
COc1ccc(Br)cc1CC(=O)Nc1cc(C)n[nH]1,2.903
Cc1ccc2c(CC(=O)N(C)CCN(C)C)c(C)[nH]c2c1C.O=C(O)CC(O)(CC(=O)O)C(=O)O,-24.63
CC(CO)NCc1csc2c1CCCC2 (stereo not shown),-15.75
Cc1ccc(NCCCNC(=O)NCc2c(C)cc(C)[nH]c2=O)nc1,-8.966
Cc1ccc(N2CCC(NC(C)c3ccc(C)o3)CC2)nc1 (stereo not shown),20.89
Cc1cc(C(N)=O)ccc1NC(=O)N1CCN(c2cccs2)CC1,15.78
CCOc1cc(C(=O)N2CCCC(c3noc(C)n3)C2)ccn1 (stereo not shown),6.535
CN(C)[C@@H]1CCN(C(=O)c2ccsc2)[C@H]1Cc1cnn(C)c1,10.37
Cc1cccc2[nH]c(C3CCN(C(=O)c4cccnn4)CC3)nc12,4.198
O=C(O)C(F)(F)F.[H][C@@]12CCN(Cc3nccs3)[C@]1([H])CC[C@@H](C(=O)Nc1cnccn1)O2,-8.357
Cc1cc(C2CCCN(CCC(=O)N3CCc4ccccc43)C2)n[nH]1 (stereo not shown),-22.7
CC(=O)NCCCNCc1ccc(Cl)c2cccnc12,10.2
CCS(=O)(=O)N1CCN(C)c2ncccc2C1,23.34
CCN1CCC2(CC1)OCCN2C(=O)c1cc(Cl)c(OC)c(Cl)c1.Cl,18.32
Cc1c(Cl)cccc1S(=O)(=O)NCc1cnc(N(C)C)n1C,3.106
Cn1cc2ncn(CCC3CCN(Cc4ccccc4)C3)c(=O)c2n1 (stereo not shown),8.901
CC(Cn1cccn1)NC(=O)CCC(=O)c1cccs1 (stereo not shown),-1.937
CCc1nc(C)c(C(=O)N2C[C@@H](C(=O)O)[C@H](C3CC3)C2)s1,13.57
NCC1(c2cccc(C(F)(F)F)c2)CCC1,-5.034
Cc1nn(C2CCS(=O)(=O)C2)c(O)c1Cc1cccc(Cl)c1 (stereo not shown),15.32
CCN1CC2(CCC1=O)CCN(C(=O)c1ccc(Cl)cc1O)CC2,20.39
CCC(NC(=O)Nc1cc(F)c(OC)c(F)c1)c1noc(C)n1 (stereo not shown),4.401
CC1(C)CNC(=O)c2nc(-c3n[nH]c(=O)[nH]3)[nH]c2C1,5.911
Cc1nn(C(C)C)c(C)c1S(=O)(=O)Nc1cccc(C(=O)O)c1,16.49
CCOC1CCCN(C(=O)c2[nH]nc(C3CC3)c2Br)C1 (stereo not shown),11.86
Cn1cccc1C(=O)N1CCc2ncc(Cn3cccn3)n2CC1,6.127
CSc1nnc(CNC(=O)Nc2ccccc2Br)n1C,6.133
NC(=O)CN1C[C@@H](c2ccccc2F)[C@@]2(CCCCC(=O)N2)C1,-21.9
CNC(=O)NCC(=O)N(C)C(c1ccc(Cl)cc1)c1cccnc1 (stereo not shown),-0.8032
CC(NCc1ccc(-c2ccc(F)cc2)o1)c1nnc2n1CCC2 (stereo not shown),18.66
COCc1noc(-c2nn(-c3ccccc3F)c3c2CCC3)n1,25.56
CCCc1cnc(C)nc1N1CCC(F)(F)CC1,10.14
COc1ncccc1CNCc1cnc(N2CCOCC2)nc1,3.396
COc1ccc(Cl)cc1NCC(=O)NCCNc1cnccn1,15
Cc1ncsc1CNC(=O)N(CCCO)C1CCc2ccccc21 (stereo not shown),6.055
N#Cc1ccc(F)c(CNc2ccc(F)cc2OCCO)c1,-132.6
CCc1cnc(CCNC(C)CC(=O)Nc2cccc(C)c2C)s1 (stereo not shown),0.8494
CCC1CC(=O)NCc2nc3sc(C)cn3c21 (stereo not shown),8.869
C=Cn1cc(CN2CCN(CC3(c4ccccc4)CC3)CC2)c(C)n1,-15.87
[H][C@@]12C[C@H](C(=O)NC(C)C)[C@@]([H])(CN(C(=O)NCCc3ccccc3)C1)O2,5.245
CCCn1cc(NC(=O)c2cccnc2O)ccc1=O,-11.66
Cc1cc(Cn2cncc(Br)c2=O)on1,0.28
CC(NCc1cccnc1)c1ccc(OCC(=O)NC2CC2)cc1 (stereo not shown),16.23
COCc1nc2cc(NCc3ccncc3)ccc2o1,12.24
NC(=O)Cn1cc(NC(=O)NCCN2CCc3ccccc3C2)cn1,-3.872
Cn1ccc(C(=O)Nc2nccn2Cc2ccccc2Cl)cc1=O,2.101
CCOCC1CN(C(=O)Cc2ccsc2)Cc2ccnn2C1.O=C(O)C(F)(F)F (stereo not shown),51.92
CCc1cnc(CN(C(C)=O)C2CCN(CCc3cnn(C)c3)C2)o1 (stereo not shown),19.72
Cc1nn(-c2ccc(C(=O)O)cc2)c2c1C(C(C)C)SCC(=O)N2 (stereo not shown),4.234
COc1cc(C(=O)N(C2CC2)C2CC(=O)NC2=O)ccc1C (stereo not shown),10
COC[C@@H]1CCC[C@@]12CN(C(=O)N(C)C)CCO2,5.389
Cc1ccsc1CN1CCc2c(nc(N3CCCCC3C)[nH]c2=O)C1 (stereo not shown),6.35 & -11.3
CCc1cc(NC(=O)C2CCCN(C(=O)NCC(C)C)C2)[nH]n1 (stereo not shown),7.869
CCCn1ccnc1CNC(=O)C1COc2cc(OC)ccc2C1 (stereo not shown),-2.129
O=C(O)C(F)(F)F.O=C(O)C(F)(F)F.[H][C@@]12CN(Cc3cccc(F)c3)CCC[C@]1(C(=O)O)CN(CCOC)C2,-6.096
CCC1(CC)CC(=O)N(CC(O)c2cccc(Br)c2)C1=O (stereo not shown),-23.5
O=C(c1cc2c([nH]c1=O)CCC2)N1CCCCC1c1cccc(F)c1 (stereo not shown),-31.69
N#CCSCCCN1CCC(C(=O)N2CCCCCC2)CC1,-0.3801
CCC(=O)N1CCC(c2ncc(C(=O)Nc3ccccc3)c(C)n2)C1 (stereo not shown),-36.06
CCn1ccnc1CN1CCN(CC(O)c2cccc(F)c2)CC1 (stereo not shown),28.68
COc1ccnc(N2CCC(=O)N(CC3CC3)C(C(C)C)C2)n1 (stereo not shown),-20.1
[H][C@@]12CS(=O)(=O)C[C@]1([H])N(Cc1cnn(-c3ccccc3Cl)c1)CCN2C,8.894
O=C(O)C(F)(F)F.O=C(O)C(F)(F)F.O=C(O)C(F)(F)F.[H][C@]12C[C@@H](Cn3cccn3)N(C(C)C)[C@@]1([H])CCN(Cc1ccoc1)C2,23.9
CC(C)C(=O)N1CCC([C@@H]2C[C@H](C(F)F)n3ncnc3N2)CC1,-0.9909
Cc1ncsc1CCC(=O)NCc1csc(N2CCCC2)n1,10.61
COc1ccccc1OCC(=O)NS(=O)(=O)c1ccccc1Br,11.57
O=C(O)C(F)(F)F.O=C(O)C(F)(F)F.[H][C@@]12OCCN(c3nnc(C)s3)[C@@]1([H])CC[C@@H]2OCc1ccccn1,-5.183
CN(C)CCN1CCc2ncc(CN(C)Cc3ccco3)n2CC1,-4.664
Cn1ccc(C(=O)N2CCN(Cc3ccccc3F)CC2)cc1=O,11.19
COCCNc1ccc(CC2CCNC2)cn1 (stereo not shown),-18.29

4 of the entries, repeated:

{"compound": "CCOc1cc(C(=O)N2CCCC(c3noc(C)n3)C2)ccn1", "stereo": "stereo not shown", "Percent Effect": 6.535}
{"compound": "CCc1nc(C)c(C(=O)N2C[C@@H](C(=O)O)[C@H](C3CC3)C2)s1", "Percent Effect": 13.57}
{"compound": "Cn1ccc(C(=O)Nc2nccn2Cc2ccccc2Cl)cc1=O", "Percent Effect": 2.101}
{"compound": "Cc1ccc(N2CCC(NC(C)c3ccc(C)o3)CC2)nc1", "stereo": "stereo not shown", "Percent Effect": 20.89}

The values are deposited in ChEMBL (CHEMBL3988442, “University of Dundee, Small-Polar-MMV Screening Library” (2021)).